Test results: patent publication US10220091B2, “Combination treatments with sonic hedgehog inhibitors” (The General Hospital Corporation, priority 2013, dated 2019)
For some assays here: For at least one compound, name, drawing or mass did not settle the structure. Some entries share one result that the patent states for a list of compounds.

Key:
PDGFRβ = test: Western blot of cell lysates, PDGFRβ; type: cell-based, human; settings: TPF-10-741 cells; after vemurafenib
[1] = tested on: metastatic melanoma harboring the BRAF(V600E) mutation; settings: cited from earlier work

With `CCCS(=O)(=O)Nc1ccc(F)c(C(=O)c2c[nH]c3ncc(-c4ccc(Cl)cc4)cc23)c1F` [vemurafenib] the PDGFRβ expression (PDGFRβ) was “upregulated”.

In the case of `CC(C)(C)c1nc(-c2cccc(NS(=O)(=O)c3c(F)cccc3F)c2F)c(-c2ccnc(N)n2)s1` [GSK2118436, dabrafenib], the “patients with tumor regression” value [1] is given as “over 50%”.
